The text below walks through data of US20220332799A1, “HERV INHIBITORS FOR USE IN TREATING TAUOPATHIES” (Deutsches Zentrum Für Neurodegenerative Erkrankungen E.V. …, priority 2019, published 2022).

The structures appear in SMILES notation. “Also recorded” adds a separate entry of the source.

For the series, the system named is N2a NM-HA^agg s2E. As to the kind of experiment: Nanoparticle measurement of EVs released by donor cells (ZetaView). Type of series: cell-based, mouse. The settings on record: donor cells 10 μM, 3 d; vs DMSO.

In the case of `CC(C)CN(C[C@@H](O)[C@H](Cc1ccccc1)NC(=O)O[C@H]1CCOC1)S(=O)(=O)c1ccc(N)cc1` [Amprenavir], the secreted particle numbers result is listed as “without affecting secreted particle numbers; also recorded: comparable amounts of particles as DMSO-treated cells”.
